Laboratory results: PubChem BioAssay AID445 (National Center for Advancing Translational Sciences (NCATS), 2006)
This is one part of the list. These are further read-outs of the screen, such as a control signal, another cell line or another target. No call is given for them. Compounds called inactive in the main read-out are mostly missing here. Potencies come from curve fits of mixed quality, noted in brackets.

Assay: IkB Signaling
Settings: ABC-DLBCL IkBa-CBG/CBR dual luciferase ratio (green luciferase fused to IkBa over red control in OCI-Ly3 lymphoma cells), 4 h
Procedure, shortened: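 Curves were fitted separately to fusion (green), unfused (red) and ratio luminescence, then classed by r2, magnitude and activity. Cells: OCI-Ly3, 4 h compound plus doxycycline at 37C; 10 uM MG-132 defined full response.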

[1] = measured here: control luc red channel unless noted
[2] = measured here: IkB-luc green channel
[3] = measured here: control luc red channel

CCn1c(=O)cc(OCC(=O)Nc2cc(Cl)c(OC)cc2OC)c2ccccc21
AC50 [1]: 0.126 µM [falling, full curve]

CCOc1ccc(CCNC(=O)c2cc3c(-c4ccc(OC)c(OC)c4)nn(C)c3s2)cc1OCC
AC50 [1]: 10 µM [falling, partial curve]

COc1ccc(-c2[nH]nc3c2C(c2ccncc2)C(C#N)=C(N)O3)cc1 (stereo unspecified)
AC50 [1]: 15.8 µM [falling, partial curve]

CCc1ccccc1NC(=O)CSc1nnc2ccc3ccccc3n12
AC50 [1]: 2 µM [falling, partial curve]

Cc1cccc(N2CCN(S(=O)(=O)c3cc(C(=O)Nc4ccccc4Cl)ccc3F)CC2)c1C
AC50 [1]: 12.6 µM [falling, partial curve]

COC(=O)c1cc2oc3ccccc3c2n1Cc1nc(-c2ccccc2C)oc1C
AC50 [1]: 0.2 µM [rising, full curve, poor fit]

Cc1ccc(NC(=O)[C@@H](c2ccccc2)N2Cc3ccccc3C2=O)cc1
AC50 [1]: 25.1 µM [falling, single point]

CC(C)(C)OC(=O)N1CCC(c2c(C(=O)NCCN3CCC(Cc4ccccc4)CC3)cnn2-c2ccc(F)cc2)CC1
AC50 [1]: 20 µM [falling, partial curve]

Brc1ccc(-n2nc(-c3ccccc3)c3cnc4cc5c(cc4c32)OCO5)cc1
AC50 [2]: 10 µM [rising, partial curve] | AC50 [3]: 12.6 µM [rising, partial curve]

COc1ccc(OC)c(CCNc2nc3ccccc3c3nc(-c4cccnc4)nn23)c1
AC50 [1]: 0.0794 µM [rising, full curve, poor fit]

COc1ccc2[nH]c(=O)c(CN(Cc3cccs3)Cc3nnnn3C(C)(C)C)cc2c1
AC50 [1]: 20 µM [falling, partial curve]

Cc1ccc2[nH]c(CSc3nnc(NC(=O)c4ccc(Cl)cc4)s3)cc(=O)c2c1
AC50 [1]: 0.398 µM [rising, partial curve, poor fit]

Cc1nn(CCCC(=O)N2CCc3ccccc3C2)c(=O)c2cc3sccc3n12
AC50 [1]: 25.1 µM [falling, partial curve]

Nc1ncn([C@@H]2O[C@@H](CO)[C@@H](O)[C@H]2O)c(=O)n1
AC50 [1]: 12.6 µM [falling, partial curve, poor fit] [measured here: IkB-luc green channel]

Cc1ccc2nc(-c3ccccc3)cn2c1
AC50 [1]: 12.6 µM [falling, partial curve]

CCOc1ccc(C(=O)c2cn(CC(=O)Nc3ccc(Cl)cc3)c3cc4c(cc3c2=O)OCCO4)cc1
AC50 [1]: 7.94 µM [falling, partial curve]

COc1cc(NC(=O)c2cc(S(=O)(=O)N3CCc4ccccc43)cn2C)cc(OC)c1OC
AC50 [1]: 10 µM [falling, partial curve]

Cc1ccc(C)c(CN2C(=O)c3ccccc3S(=O)(=O)c3ccc(C(=O)N4CCCCC4)cc32)c1
AC50 [1]: 20 µM [falling, single point]

Cc1ccc(S(=O)(=O)C(C#N)c2nc3ccccc3nc2N2CCCC2)cc1 (stereo unspecified)
AC50 [1]: 10 µM [falling, partial curve]

CC(=O)c1cccc(NC(=O)c2noc3c2CCCC3)c1
AC50 [1]: 0.158 µM [rising, full curve, poor fit]

CCc1ccccc1N(C)C(=O)c1cc2c(=O)oc3ccccc3c2s1
AC50 [1]: 39.8 µM [falling, single point]

CC(C)CC(=O)Nc1c(C(=O)N2CCN(c3ccccc3)CC2)oc2ccccc12
AC50 [1]: 31.6 µM [falling, single point]

Cc1cc2cc(CNC(=O)Nc3ccccc3)ccc2n1C
AC50 [1]: 15.8 µM [falling, partial curve]

Cc1ccc(-n2nnnc2SC(C)C(=O)Nc2ccc(Cl)cn2)cc1 (stereo unspecified)
AC50 [1]: 31.6 µM [falling, single point]

COc1cc2c(=O)n(CCc3ccccc3)c(=O)n(CC(=O)Nc3ccccc3)c2cc1OC
AC50 [1]: 20 µM [falling, partial curve, poor fit]

COc1cc(NC(=O)CSc2ncc(S(=O)(=O)c3ccc(Br)cc3)c(=O)[nH]2)cc(OC)c1
AC50 [1]: 15.8 µM [falling, partial curve]

CC1(COc2ccc(C[C@H]3SC(=O)NC3=O)cc2)CCCCC1
AC50 [1]: 39.8 µM [falling, single point]

COCCCNC(=O)c1oc2ccc(S(=O)(=O)N(C)C3CCCCC3)cc2c1C
AC50 [1]: 15.8 µM [falling, partial curve]

Fc1ccc(-c2noc3ncnc(NC4CCCCC4)c23)cc1
AC50 [1]: 7.94 µM [rising, partial curve]

CCN(CC)S(=O)(=O)c1ccc2oc(C(=O)N(C)Cc3ccccc3)c(C)c2c1
AC50 [1]: 20 µM [falling, partial curve]

CCCCOc1cccc(C(=O)N(Cc2sccc2C)C2CCS(=O)(=O)C2)c1 (stereo unspecified)
AC50 [1]: 31.6 µM [falling, single point]

COc1cc(C2CC(=O)Nc3cc4c(cc32)OCCO4)cc(Br)c1OC (stereo unspecified)
AC50 [2]: 2 µM [rising, partial curve] | AC50 [3]: 0.794 µM [rising, partial curve]

COc1ccc(Cn2c(=O)c3oc4ccccc4c3n(Cc3ccc(F)cc3)c2=O)cc1
AC50 [1]: 0.398 µM [falling, partial curve]

Cc1cccc(N2CCN(C(=O)CCCCn3c(=O)[nH]c4ccsc4c3=O)CC2)c1C
AC50 [1]: 15.8 µM [falling, partial curve]

COc1ccc(CNC(=O)c2ccc(CS(=O)(=O)c3ccccc3OC)o2)cc1
AC50 [1]: 12.6 µM [falling, partial curve]

Cc1ccc(Nc2ncccc2C(=O)O)cc1C
AC50 [1]: 39.8 µM [falling, single point]

CCCC(=O)Nc1ccc(-c2nc3cc(C)ccc3o2)cc1
AC50 [1]: 15.8 µM [falling, partial curve]

O=C1CCSC2(C(=O)N(Cc3ccc(F)cc3)c3ccccc32)N1c1ccc(F)c(F)c1 (stereo unspecified)
AC50 [1]: 31.6 µM [falling, partial curve, poor fit]

CCc1ccc(-c2nc(CS(=O)CC(=O)NCCc3ccc(Cl)cc3)c(C)o2)cc1 (stereo unspecified)
AC50 [1]: 20 µM [falling, partial curve]
